# Results: the supplement of paper PMC8728848
# This is one part of the list.
# Columns and labels:
# Test in all cases: glycan array binding signal (z-score within array); higher = stronger binding
# Settings in all cases: glycan notation: IUPAC condensed, linker removed
# [1] = target: Fuc(a1-2)[Gal(a1-4)]Gal(b1-4)GlcNAc
# How it was run: (§1)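 The binding signal is a Z-score computed within each array. Data were drawn from 3228 arrays in the Consortium for Functional Glycomics database, restricted to those with a known protein sequence. Scores were averaged over arrays of the same protein sequence at different concentrations or buffers, and over linkers, and negative values can be taken as non-binding.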
# [2] = target: Fuc(a1-2)[GalNAc(a1-3)]Gal
# How it was run: as §1
# [3] = target: Fuc(a1-2)[GalNAc(a1-3)]Gal(b1-3)GalNAc(a1-3)[Fuc(a1-2)]Gal(b1-4)GlcNAc
# How it was run: as §1
# [4] = target: Fuc(a1-2)[GalNAc(a1-3)]Gal(b1-3)GalNAc(b1-3)Gal(a1-4)Gal(b1-4)Glc
# How it was run: as §1
# [5] = target: Fuc(a1-2)[GalNAc(a1-3)]Gal(b1-3)GlcNAc
# How it was run: as §1
# [6] = target: Fuc(a1-2)[GalNAc(a1-3)]Gal(b1-3)GlcNAc(b1-2)Man(a1-3)[Fuc(a1-2)[GalNAc(a1-3)]Gal(b1-3)GlcNAc(b1-2)Man(a1-6)]Man(b1-4)GlcNAc(b1-4)GlcNAc
# How it was run: as §1
# [7] = target: Fuc(a1-2)[GalNAc(a1-3)]Gal(b1-3)GlcNAc(b1-2)Man(a1-3)[Fuc(a1-2)[GalNAc(a1-3)]Gal(b1-3)GlcNAc(b1-2)Man(a1-6)]Man(b1-4)GlcNAc(b1-4)[Fuc(a1-6)]GlcNAc
# How it was run: as §1
# [8] = target: Fuc(a1-2)[GalNAc(a1-3)]Gal(b1-3)GlcNAc(b1-3)GalNAc
# How it was run: as §1
# [9] = target: Fuc(a1-2)[GalNAc(a1-3)]Gal(b1-3)GlcNAc(b1-6)GalNAc
# How it was run: as §1
# [10] = target: Fuc(a1-2)[GalNAc(a1-3)]Gal(b1-4)Glc
# How it was run: as §1
# [11] = target: Fuc(a1-2)[GalNAc(a1-3)]Gal(b1-4)GlcNAc
# How it was run: as §1
# [12] = target: Fuc(a1-2)[GalNAc(a1-3)]Gal(b1-4)GlcNAc(b1-2)Man
# How it was run: as §1
# [13] = target: Fuc(a1-2)[GalNAc(a1-3)]Gal(b1-4)GlcNAc(b1-2)Man(a1-3)[Fuc(a1-2)[GalNAc(a1-3)]Gal(b1-4)GlcNAc(b1-2)Man(a1-6)]Man(b1-4)GlcNAc(b1-4)GlcNAc
# How it was run: as §1
# [14] = target: Fuc(a1-2)[GalNAc(a1-3)]Gal(b1-4)GlcNAc(b1-2)Man(a1-3)[Fuc(a1-2)[GalNAc(a1-3)]Gal(b1-4)GlcNAc(b1-2)Man(a1-6)]Man(b1-4)GlcNAc(b1-4)[Fuc(a1-6)]GlcNAc
# How it was run: as §1
# [15] = target: Fuc(a1-2)[GalNAc(a1-3)]Gal(b1-4)GlcNAc(b1-3)Gal(b1-4)GlcNAc
# How it was run: as §1
# [16] = target: Fuc(a1-2)[GalNAc(a1-3)]Gal(b1-4)GlcNAc(b1-3)Gal(b1-4)GlcNAc(b1-3)Gal(b1-4)GlcNAc
# How it was run: as §1
# [17] = target: Fuc(a1-2)[GalNAc(a1-3)]Gal(b1-4)GlcNAc(b1-3)GalNAc
# How it was run: as §1
# [18] = target: Fuc(a1-2)[GalNAc(a1-3)]Gal(b1-4)GlcNAc(b1-3)[Fuc(a1-2)[GalNAc(a1-3)]Gal(b1-4)GlcNAc(b1-6)]GalNAc
# How it was run: as §1
# [19] = target: Fuc(a1-2)[GalNAc(a1-3)]Gal(b1-4)GlcNAc(b1-6)GalNAc
# How it was run: as §1
# [20] = target: Fuc(a1-2)[GalNAc(a1-3)]Gal(b1-4)[Fuc(a1-3)]GlcNAc
# How it was run: as §1
# [21] = target: Fuc(a1-2)[GalNAc(a1-3)]Gal(b1-4)[Fuc(a1-3)]GlcNAc(b1-3)GalNAc
# How it was run: as §1
# [22] = target: Fuc(a1-2)[GalNAc(a1-4)]Gal(b1-4)GlcNAc
# How it was run: as §1
# [23] = target: Fuc(a1-2)[GalNAc(b1-3)]Gal
# How it was run: as §1
# Fuc(a1-3)GlcNAc = target: Fuc(a1-3)GlcNAc
# How it was run: as §1
# [24] = target: Fuc(a1-3)[Gal(b1-4)]Glc6S
# How it was run: as §1
# [25] = target: Fuc(a1-3)[Gal(b1-4)]GlcNAc
# How it was run: as §1
# [26] = target: Fuc(a1-3)[Gal(b1-4)]GlcNAc(b1-2)Man
# How it was run: as §1
# [27] = target: Fuc(a1-3)[Gal(b1-4)]GlcNAc(b1-2)Man(a1-3)[Fuc(a1-3)[Gal(b1-4)]GlcNAc(b1-2)Man(a1-6)]Man(b1-4)GlcNAc(b1-4)GlcNAc
# How it was run: as §1
# [28] = target: Fuc(a1-3)[Gal(b1-4)]GlcNAc(b1-2)Man(a1-3)[Fuc(a1-3)[Gal(b1-4)]GlcNAc(b1-2)Man(a1-6)]Man(b1-4)GlcNAc(b1-4)[Fuc(a1-6)]GlcNAc
# How it was run: as §1
# [29] = target: Fuc(a1-3)[Gal(b1-4)]GlcNAc(b1-3)Gal(b1-3)[Fuc(a1-4)]GlcNAc
# How it was run: as §1
# [30] = target: Fuc(a1-3)[Gal(b1-4)]GlcNAc(b1-3)Gal(b1-4)[Fuc(a1-3)]GlcNAc
# How it was run: as §1
# [31] = target: Fuc(a1-3)[Gal(b1-4)]GlcNAc(b1-3)Gal(b1-4)[Fuc(a1-3)]GlcNAc(b1-3)Gal(b1-4)[Fuc(a1-3)]GlcNAc
# How it was run: as §1
# [32] = target: Fuc(a1-3)[Gal(b1-4)]GlcNAc(b1-3)GalNAc
# How it was run: as §1
# [33] = target: Fuc(a1-3)[Gal(b1-4)]GlcNAc(b1-6)GalNAc
# How it was run: as §1
# [34] = target: Fuc(a1-3)[Gal(b1-4)]GlcNAc(b1-6)[Gal(b1-3)GlcNAc(b1-3)]Gal(b1-4)Glc
# How it was run: as §1
# [35] = target: Fuc(a1-3)[Gal(b1-4)]GlcNAc6S
# How it was run: as §1
# [36] = target: Fuc(a1-3)[Gal3S(b1-4)]Glc
# How it was run: as §1
# [37] = target: Fuc(a1-3)[Gal3S(b1-4)]GlcNAc
# How it was run: as §1
binder,measurement,setting,value
PX9961Q-bfa-504-27-504 (Bacteroides fragilis) (protein) NDWLDRKPADGIPSEDAITNYNDALTARTGMYDGIQGNSNATSYYGARMFYYGDVRADDMQARTQGMRSSSCYEMLYTVDDAPNMWNIPYNVIRRANRLIEAINEKKVTDATEAQIGKIYSEALVVRALVHFDLVRIYGMPYTADNGASLGVPVIVKPLERNDLPSRNTVAEVYTQVITDLTDAINSGYLAKDQTPGYINEWAAKALLTRVYLTKGDNENALKVAEDIITNSPYKLWTNEEYVNAWYKSNGAHTNEMIFEVVNASNDDWTDRNGIAYLLNENGYADAIVTKSFMNMLSQDPKDVRIGMVLPAQYDKDLQEEYGDAKIFINKFPADKDDVGEMRLNNLPLLRLSEVYLSAAEAAAKLGGHQDKAAKYLNEIVQRANPEAKAISEADATVERIILERRKEMIGEGQRYFDALRNNETIVRYKDEGDKGYHYSLIKESQSFDRTYFRAILPIPVDETNVNPNLRAQQNPGY,glycan array binding signal (z-score),[1],1.12
same,glycan array binding signal (z-score),[2],-0.718
same,glycan array binding signal (z-score),[3],-0.253
same,glycan array binding signal (z-score),[4],0.126
same,glycan array binding signal (z-score),[5],-0.332
same,glycan array binding signal (z-score),[6],0.439
same,glycan array binding signal (z-score),[7],-0.402
same,glycan array binding signal (z-score),[8],-0.474
same,glycan array binding signal (z-score),[9],-0.738
same,glycan array binding signal (z-score),[10],-1.4
same,glycan array binding signal (z-score),[11],-0.704
same,glycan array binding signal (z-score),[12],-0.265
same,glycan array binding signal (z-score),[13],-0.023
same,glycan array binding signal (z-score),[14],0.309
same,glycan array binding signal (z-score),[15],0.965
same,glycan array binding signal (z-score),[16],0.044
same,glycan array binding signal (z-score),[17],0.153
same,glycan array binding signal (z-score),[18],-0.308
same,glycan array binding signal (z-score),[19],0.687
same,glycan array binding signal (z-score),[20],-0.217
same,glycan array binding signal (z-score),[21],-0.673
same,glycan array binding signal (z-score),[22],-0.233
same,glycan array binding signal (z-score),[23],-0.282
same,glycan array binding signal (z-score),Fuc(a1-3)GlcNAc,-0.481
same,glycan array binding signal (z-score),[24],0.341
same,glycan array binding signal (z-score),[25],0.177
same,glycan array binding signal (z-score),[26],-0.257
same,glycan array binding signal (z-score),[27],0.155
same,glycan array binding signal (z-score),[28],0.98
same,glycan array binding signal (z-score),[29],-0.095
same,glycan array binding signal (z-score),[30],0.859
same,glycan array binding signal (z-score),[31],-0.3
same,glycan array binding signal (z-score),[32],-0.297
same,glycan array binding signal (z-score),[33],4.03
same,glycan array binding signal (z-score),[34],-0.595
same,glycan array binding signal (z-score),[35],-0.314
same,glycan array binding signal (z-score),[36],-0.651
same,glycan array binding signal (z-score),[37],-0.709

# A second format for part of the listing above.
binder	measurement	setting	value
PX9961Q-bfa-504-27-504 (Bacteroides fragilis) (protein) NDWLDRKPADGIPSEDAITNYNDALTARTGMYDGIQGNSNATSYYGARMFYYGDVRADDMQARTQGMRSSSCYEMLYTVDDAPNMWNIPYNVIRRANRLIEAINEKKVTDATEAQIGKIYSEALVVRALVHFDLVRIYGMPYTADNGASLGVPVIVKPLERNDLPSRNTVAEVYTQVITDLTDAINSGYLAKDQTPGYINEWAAKALLTRVYLTKGDNENALKVAEDIITNSPYKLWTNEEYVNAWYKSNGAHTNEMIFEVVNASNDDWTDRNGIAYLLNENGYADAIVTKSFMNMLSQDPKDVRIGMVLPAQYDKDLQEEYGDAKIFINKFPADKDDVGEMRLNNLPLLRLSEVYLSAAEAAAKLGGHQDKAAKYLNEIVQRANPEAKAISEADATVERIILERRKEMIGEGQRYFDALRNNETIVRYKDEGDKGYHYSLIKESQSFDRTYFRAILPIPVDETNVNPNLRAQQNPGY	glycan array binding signal (z-score)	[21]	-0.673
same	glycan array binding signal (z-score)	[36]	-0.651
